Laboratory results taken from publication PMC7037732, “Synthesis of Combretastatin A-4 and 3′-Aminocombretastatin A-4 derivatives with Aminoacid Containing Pendants and Study of their Interaction with Tubulin and as Downregulators of the VEGF, hTERT and c-Myc Gene Expression” (Molecules, 2020).

Columns and labels:
[1] = tested on: MCF-7 (breast adenocarcinoma); assay: Inhibition of cell proliferation (MTT), MCF-7; type: cell-based, human; conditions: IC50 (HEK-293)/IC50 (MCF-7)
Text: (§1) The ability of the synthetic compounds to inhibit cell proliferation was established by means of their IC50 values towards the tumor cell lines HT-29 (human colon adenocarcinoma), MCF-7 (breast adenocarcinoma) and A-549 (human pulmonary adenocarcinoma), as well as towards the nontumor cell line HEK-293 (human embryonic kidney cells). Results for compounds derived from CA-4 are presented in Table 1, along with the calculated selectivity indexes SIA (for HT-29 cell line), SIB (for MCF-7 cell line) and SIc (for A-549 cell line), obtained by dividing the IC50 values of the nontumor cell line (HEK-293) by those of the corresponding tumor cell line. The higher the SI index, the higher the therapeutic safety margin.
(§2) Cell culture media were purchased from Gibco (Grand Island, NY, USA). Fetal bovine serum (FBS) was a product of Harlan-Seralab (Belton, U.K.). Supplements and other chemicals not listed in this section were obtained from Sigma Chemical Co. (St. Louis, MO, USA). Plastics for cell culture were supplied by Thermo Fischer Scientific Inc., Madrid, Spain. All tested compounds were dissolved in DMSO at a concentration of 10 μg/mL and stored at −20 °C until use. HT-29, MCF-7, A-549 and HEK-293 cell lines were maintained in a Dulbecco’s modified Eagle’s medium (DMEM) containing glucose (1 g/L), glutamine (2 mM), penicillin (50 IU/mL), streptomycin (50 μg/mL) and amphotericin B (1.25 μg/mL), supplemented with 10% FBS. Cells from human non-small lung carcinoma (clone A549; ATCC n°: CCL2, MD, USA) were routinely grown at 37 °C in a humidified atmosphere of 5% CO2. Cells were maintained in a standard medium composed of RPMI 1640 (Lonza, Group Ltd., Basel, Switzerland), supplemented with 10% fetal bovine serum (FBS), 2 mM L-glutamine and 1% penicillin and streptomycin (Invitrogen). Cells were free from mycoplasma as determined by MycoAlert tests (Lonza, Group Ltd., Basel, Switzerland).
(§3) A total of 5 × 10^3 HT-29, MCF-7 or HEK-293 cells in a total volume of 100 μL of their respective growth media were incubated with serial dilutions of the tested compounds. The 3-(4,5-dimethylthiazol-2-yl)-2,5-diphenyltetrazolium bromide (MTT; Sigma Chemical Co.) dye reduction assay in a 96-well microplate was used, as previously described. […] The resulting formazan was dissolved in 150 μL of 0.04 N HCl/2-propanol and read at 550 nm. All determinations were carried out in triplicate.

[2] = tested on: HT-29 (human colon adenocarcinoma); assay: Inhibition of cell proliferation (MTT), HT-29; type: cell-based; conditions: IC50 (HEK-293)/IC50 (HT-29)
Text: as §1, §2, §3

[3] = tested on: A-549 (human pulmonary adenocarcinoma); assay: Inhibition of cell proliferation (MTT), A-549; type: cell-based; conditions: IC50 (HEK-293)/IC50 (A-549)
Text: as §1
as §2, with “Switzerland). […]” for “Switzerland).”

Row | SMILES | SIB ([1]; Table 1) | SIA ([2]; Table 1) | SIA ([2]; Table 1, listed as 6.25) | SIc ([3]; Table 1) | SIB ([1]; Table 2) | SIA ([2]; Table 2) | SIc ([3]; Table 2)
1 | COc1ccc(/C=C\c2cc(OC)c(OC)c(OC)c2)cc1OCC(=O)N[C@H](CO)C(=O)O [Compound 6.5] | 1.2 | 1.1 | greater than 1 | <0.09 |  |  | 
2 | COc1ccc(/C=C\c2cc(OC)c(OC)c(OC)c2)cc1NC(=O)CNC(=O)OCC1c2ccccc2-c2ccccc21 [Compound 7.1] |  |  |  |  | 0.7 | 0.5 | 0.02
3 | COc1ccc(/C=C\c2cc(OC)c(OC)c(OC)c2)cc1NC(=O)[C@@H](NC(=O)OCC1c2ccccc2-c2ccccc21)C(C)C [Compound 7.3] |  |  |  |  | 0.6 | 0.5 | 0.07
4 | COc1ccc(/C=C\c2cc(OC)c(OC)c(OC)c2)cc1NC(=O)[C@H](CC(C)C)NC(=O)OCC1c2ccccc2-c2ccccc21 [Compound 7.4] |  |  |  |  | 1.6 | 0.6 | 0.03
5 | COc1ccc(/C=C\c2cc(OC)c(OC)c(OC)c2)cc1NC(=O)[C@H](Cc1ccccc1)NC(=O)OCC1c2ccccc2-c2ccccc21 [Compound 7.5] |  |  |  |  | 0.2 | 0.3 | 0.01
6 | COc1ccc(/C=C\c2cc(OC)c(OC)c(OC)c2)cc1NC(=O)[C@@H]1CCCN1C(=O)OCC1c2ccccc2-c2ccccc21 [Compound 7.6] |  |  |  |  | 2.2 | 0.4 | 0.1
7 | COc1ccc(/C=C\c2cc(OC)c(OC)c(OC)c2)cc1NC(=O)[C@H](Cc1ccc(O)cc1)NC(=O)OCC1c2ccccc2-c2ccccc21 [Compound 7.8] |  |  |  |  | 1.3 | 0.9 | 0.01
8 | COc1ccc(/C=C\c2cc(OC)c(OC)c(OC)c2)cc1NC(=O)[C@H](CCSC)NC(=O)OCC1c2ccccc2-c2ccccc21 [Compound 7.9] |  |  |  |  | 1.6 | 0.2 | 0.02
9 | COc1ccc(/C=C\c2cc(OC)c(OC)c(OC)c2)cc1NC(=O)CN [Compound 8.1] |  |  |  |  | 1.1 | 1.0 | 0.02
10 | COc1ccc(/C=C\c2cc(OC)c(OC)c(OC)c2)cc1NC(=O)[C@@H](N)C(C)C [Compound 8.3] |  |  |  |  | 0.6 | 0.6 | 0.02
11 | COc1ccc(/C=C\c2cc(OC)c(OC)c(OC)c2)cc1NC(=O)[C@@H](N)CC(C)C [Compound 8.4] |  |  |  |  | 0.9 | 0.9 | 0.01
12 | COc1ccc(/C=C\c2cc(OC)c(OC)c(OC)c2)cc1NC(=O)[C@@H](N)Cc1ccccc1 [Compound 8.5] |  |  |  |  | 1.5 | 0.8 | 0.02
13 | COc1ccc(/C=C\c2cc(OC)c(OC)c(OC)c2)cc1NC(=O)[C@@H](N)CCSC [Compound 8.9] |  |  |  |  | 1.1 | 0.7 | 0.04
14 | COc1ccc(/C=C\c2cc(OC)c(OC)c(OC)c2)cc1NC(=O)[C@H](NC(=O)OCC1c2ccccc2-c2ccccc21)C(C)C [Compound 9.1] |  |  |  |  | 1.1 | 0.9 | 0.7
15 | COc1ccc(/C=C\c2cc(OC)c(OC)c(OC)c2)cc1NC(=O)[C@@H](CC(C)C)NC(=O)OCC1c2ccccc2-c2ccccc21 [Compound 9.2] |  |  |  |  | 0.8 | 0.05 | 0.05
16 | COc1ccc(/C=C\c2cc(OC)c(OC)c(OC)c2)cc1NC(=O)[C@@H](Cc1ccccc1)NC(=O)OCC1c2ccccc2-c2ccccc21 [Compound 9.3] |  |  |  |  | 2.5 | 0.9 | 0.6
17 | COc1ccc(/C=C\c2cc(OC)c(OC)c(OC)c2)cc1NC(=O)[C@H]1CCCN1C(=O)OCC1c2ccccc2-c2ccccc21 [Compound 9.4] |  |  |  |  | 0.6 | 0.6 | 0.2
18 | COc1ccc(/C=C\c2cc(OC)c(OC)c(OC)c2)cc1NC(=O)[C@H](N)C(C)C [Compound 10.1] |  |  |  |  | 0.5 | 0.5 | 0.2
19 | COc1ccc(/C=C\c2cc(OC)c(OC)c(OC)c2)cc1NC(=O)[C@H](N)CC(C)C [Compound 10.2] |  |  |  |  | 0.2 | 0.4 | 2.7
20 | COc1ccc(/C=C\c2cc(OC)c(OC)c(OC)c2)cc1NC(=O)[C@H](N)Cc1ccccc1 [Compound 10.3] |  |  |  |  | 1.8 | 0.9 | 1.2
21 | COc1ccc(/C=C\c2cc(OC)c(OC)c(OC)c2)cc1NC(=O)[C@H]1CCCN1 [Compound 10.4] |  |  |  |  | 5.0 | 0.7 | 0.4
